Measurements from ChEMBL document CHEMBL5252550, “DYRK1A kinase inhibition with emphasis on neurodegeneration: A comprehensive evolution story-cum-perspective” (Eur J Med Chem, 2018).

The chains behind the UniProt entries cited, without tags or fusion partners.
UniProt Q9Y463, whole entry: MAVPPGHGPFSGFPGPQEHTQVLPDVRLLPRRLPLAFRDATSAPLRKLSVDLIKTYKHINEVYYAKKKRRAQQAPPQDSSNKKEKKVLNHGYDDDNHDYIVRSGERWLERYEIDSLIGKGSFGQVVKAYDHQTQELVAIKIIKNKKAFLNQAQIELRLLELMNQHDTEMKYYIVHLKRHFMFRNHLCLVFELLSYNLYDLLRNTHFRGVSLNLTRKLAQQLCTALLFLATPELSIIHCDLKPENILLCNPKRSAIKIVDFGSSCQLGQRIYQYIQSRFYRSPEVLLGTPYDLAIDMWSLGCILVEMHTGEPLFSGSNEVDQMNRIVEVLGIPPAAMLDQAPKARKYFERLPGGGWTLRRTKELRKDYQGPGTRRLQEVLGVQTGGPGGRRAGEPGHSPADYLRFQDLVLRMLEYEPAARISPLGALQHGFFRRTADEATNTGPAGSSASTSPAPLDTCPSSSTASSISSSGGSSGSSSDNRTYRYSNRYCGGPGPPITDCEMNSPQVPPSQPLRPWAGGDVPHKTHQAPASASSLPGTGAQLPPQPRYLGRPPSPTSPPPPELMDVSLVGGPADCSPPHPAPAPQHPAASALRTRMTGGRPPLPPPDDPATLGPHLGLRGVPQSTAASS

Target: Dual specificity tyrosine-phosphorylation-regulated kinase 1B (Homo sapiens, UniProt Q9Y463)
Test: Inhibition of DYRK1B (unknown origin)

## COc1cc(N2CCN(C)CC2)ccc1Nc1nccc(-c2cn(C)c3cnccc23)n1
  IC50: 17 nM
